Some of these results come from one statement about several compounds together.
System: LDLR
Assay: Western analysis of LDLR protein expression in HepG2 cells after transfection of duplex RNAs
Type: cell-based, human
Settings: 50 nM, western blotting four days after transfection, standard conditions
Method: Cell culture and transfection. Unmodified, 2′-O-methyl, and 2′-fluoro RNAs with two 2′-deoxythymidine bases at the 3′ end were obtained from Integrated DNA Technologies or Alnylam Pharmaceuticals. HepG2 (American Type Culture Collection (ATCC)) and fibroblast cells (GM04281; Coriell) were cultured with Minimum Essential Medium Eagle (MEM; Sigma) supplemented with 10% FBS, 1% MEM non-essential amino acids (Sigma), and 1 mM sodium pyruvate (Sigma). HuH-7 (Japanese Collection of Research Bioresources) and SW480 cells (ATCC) were cultured with Dulbecco's Modified Eagle's Medium (Sigma) supplemented with 10% FBS and 1 mM sodium pyruvate. Cells were plated in 6-well plates at 120,000 (HepG2 and HuH-7), 60,000 (fibroblast), or 150,000 (SW480) cells/well 2 days before transfection. Duplex RNAs were transfected into cells using Lipofectamine RNAiMAX (Invitrogen). […]
Analysis of LDLR protein expression. […] Protein concentrations were quantified with BCA assay kit (Thermo Scientific). […] Protein bands were quantified using ImageJ software.
Analysis of Interferon Responsive Genes. mRNA levels of the interferon responsive genes including OAST, OAS2, MX1, IFITM1, and ISGF3γ were measured by qRT-PCR. agRNAs (50 nM) and Poly I:C (0-100 ng/mL; Sigma) were transfected into HepG2 cells using the cationic lipid as described above. […] LDLR protein levels on Day 4 were also measured by western blot analysis.

LDLR-15: agRNA duplex; sense UGACGUGGGCCCCGAGUGCdTdT, antisense GCACUCGGGGCCCACGUCAdTdT (sense UGACGUGGGCCCCGAGUGCDTDT; antisense GCACUCGGGGCCCACGUCADTDT; chemistry not fully specified)
increase of LDLR protein levels: 2-3 fold
